This passage reports binding results from article PMC11060674.

Amino acid sequences for entries named in this document (tags omitted). A change or cut given only in a name is not applied to a line headed by its entry.
UniProt F6H3T7: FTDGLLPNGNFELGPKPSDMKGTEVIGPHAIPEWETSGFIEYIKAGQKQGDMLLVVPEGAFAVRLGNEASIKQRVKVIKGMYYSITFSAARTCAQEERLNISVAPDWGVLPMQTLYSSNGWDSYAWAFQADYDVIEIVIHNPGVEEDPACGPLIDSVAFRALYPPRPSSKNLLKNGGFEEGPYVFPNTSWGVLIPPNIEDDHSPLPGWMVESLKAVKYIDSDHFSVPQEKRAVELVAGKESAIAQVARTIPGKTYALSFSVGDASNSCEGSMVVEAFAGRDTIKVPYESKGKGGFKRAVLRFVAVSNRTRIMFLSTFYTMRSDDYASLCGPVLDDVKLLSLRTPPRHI
UniProt E0CQG0: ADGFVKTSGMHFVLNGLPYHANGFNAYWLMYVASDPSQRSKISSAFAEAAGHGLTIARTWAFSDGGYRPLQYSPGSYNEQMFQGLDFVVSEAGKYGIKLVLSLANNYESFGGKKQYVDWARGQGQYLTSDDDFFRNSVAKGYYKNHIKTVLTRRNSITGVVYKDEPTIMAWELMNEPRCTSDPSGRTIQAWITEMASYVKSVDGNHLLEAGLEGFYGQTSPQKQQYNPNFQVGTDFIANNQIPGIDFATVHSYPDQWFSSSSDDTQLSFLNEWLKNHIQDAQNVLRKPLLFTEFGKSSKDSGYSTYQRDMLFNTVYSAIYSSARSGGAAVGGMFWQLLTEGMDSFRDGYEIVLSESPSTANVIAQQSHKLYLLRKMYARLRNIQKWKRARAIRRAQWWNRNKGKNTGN
UniProt A0ACM8QQ92: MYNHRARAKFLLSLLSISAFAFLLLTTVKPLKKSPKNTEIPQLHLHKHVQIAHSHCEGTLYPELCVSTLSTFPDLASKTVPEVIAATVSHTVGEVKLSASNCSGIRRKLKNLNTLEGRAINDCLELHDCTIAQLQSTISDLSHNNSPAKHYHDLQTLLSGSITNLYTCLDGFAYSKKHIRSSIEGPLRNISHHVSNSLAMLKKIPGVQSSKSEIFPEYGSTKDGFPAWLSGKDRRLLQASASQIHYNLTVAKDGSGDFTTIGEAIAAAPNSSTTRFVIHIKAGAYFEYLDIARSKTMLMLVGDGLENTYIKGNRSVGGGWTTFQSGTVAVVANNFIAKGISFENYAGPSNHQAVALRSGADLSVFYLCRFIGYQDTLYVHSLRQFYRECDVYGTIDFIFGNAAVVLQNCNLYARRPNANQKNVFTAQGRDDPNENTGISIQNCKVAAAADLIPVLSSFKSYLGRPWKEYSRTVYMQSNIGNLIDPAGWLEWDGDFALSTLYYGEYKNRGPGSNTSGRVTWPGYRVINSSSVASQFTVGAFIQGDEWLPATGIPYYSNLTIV
UniProt D7TFE6: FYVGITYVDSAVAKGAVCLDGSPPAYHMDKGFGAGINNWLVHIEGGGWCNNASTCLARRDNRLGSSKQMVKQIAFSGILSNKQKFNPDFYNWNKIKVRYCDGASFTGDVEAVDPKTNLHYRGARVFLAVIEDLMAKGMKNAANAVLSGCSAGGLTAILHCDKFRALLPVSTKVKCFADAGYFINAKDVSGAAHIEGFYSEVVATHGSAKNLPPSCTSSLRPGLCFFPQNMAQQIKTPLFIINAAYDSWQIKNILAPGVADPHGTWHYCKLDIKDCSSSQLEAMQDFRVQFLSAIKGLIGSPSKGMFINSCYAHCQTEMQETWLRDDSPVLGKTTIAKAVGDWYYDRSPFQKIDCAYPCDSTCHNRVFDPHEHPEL

These are yes or no findings as the source states them, for the method shown. Binding seen in cells or lysates may run through a third protein. A yes stands for co-enrichment or nearness to the bait. Other partners may have been found.

In the assay the target is DUF642 domain-containing protein (VvDUF642) (Vitis vinifera (endogenous in grape)) (UniProt F6H3T7). The assay can be described thus: affinity purification with mass spectrometry; IP of endogenous VvDUF642 from grape proteins with the VvDUF642 mAb (CNBr-conjugated antibody, overnight), elution with 0.2 M glycine pH 2.5, in-solution trypsin digestion, MS; anti-mouse IgG as control.

Turning to “cellulase domain-containing protein (VvCDP) (from UniProt E0CQG0)”, the binding result is “binds”.
For “pectinesterase (VvPEC) (from UniProt A0ACM8QQ92) (enzyme)”, the binding result is “binds”.
In the case of “pectin acetylesterase (VvPAE) (from UniProt D7TFE6) (enzyme)”, the binding entry is listed as “binds”.
